Measurements reported in PubChem BioAssay AID1508588 (Peter MacCallum Cancer Centre, 2020)
The whole screen tested about 18,000 reagents; this is a random part of them. 790 of all reagents (4.4%) count as active. 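Calls rest on a combination of fold-change classes in drug and vehicle arms, not all shown here.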 Reagent sequences are not shown.

Purpose: 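Genome-wide search for knock-downs that heighten vemurafenib action in melanoma cells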 (primary screen)
Cells: human WM266.4 melanoma cells (BRAF V600 mutant)
Knock-down reagent: siRNA pool against human genes, 40 nM
Timing: 96 h from transfection to read-out
Challenge: vemurafenib 300 nM (about IC25), added 48 h after transfection, for 48 h; comparison arm got DMSO vehicle only
Measured: 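Cell gain (DAPI nuclei at end minus before drug, mean of two replicates) and medium lactate by absorbance per cell, both as ratio to non-targeting siRNA, also grouped into fold-change classes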
Direction: cell gain with vemurafenib: higher = more cell gain than with non-targeting siRNA; lactate per cell with vemurafenib: higher = more lactate made per cell
Active means: 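a knock-down counts as enhancing when its fold-change classes with vehicle and with vemurafenib, taken together, show a stronger drug effect on cell gain or lactate per cell; exact class pairs not stated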
Calls: active = enhances vemurafenib effect; inactive = no enhancement seen

SRARP (steroid receptor associated and regulated protein) → cell gain with vemurafenib = 0.63; lactate per cell with vemurafenib = 1.1; Outcome = inactive
DHPS (deoxyhypusine synthase) → cell gain with vemurafenib = 1; lactate per cell with vemurafenib = 0.38; Outcome = active
FOXG1 (forkhead box G1) → cell gain with vemurafenib = 0.76; lactate per cell with vemurafenib = 0.76; Outcome = inactive
BRMS1L (BRMS1 like transcriptional repressor) → cell gain with vemurafenib = 0.88; lactate per cell with vemurafenib = 0.55; Outcome = inactive
DEFB107B (defensin beta 107B) → cell gain with vemurafenib = 0.89; lactate per cell with vemurafenib = 0.66; Outcome = inactive
TRIM33 (tripartite motif containing 33) → cell gain with vemurafenib = 0.98; lactate per cell with vemurafenib = 0.84; Outcome = inactive
GRXCR1 (glutaredoxin and cysteine rich domain containing 1) → cell gain with vemurafenib = 0.82; lactate per cell with vemurafenib = 0.6; Outcome = inactive
ZDHHC12 (zDHHC palmitoyltransferase 12) → cell gain with vemurafenib = 0.34; lactate per cell with vemurafenib = 0.85; Outcome = inactive
FLNB (filamin B) → cell gain with vemurafenib = 0.01; lactate per cell with vemurafenib = 0.63; Outcome = inactive
DLD (dihydrolipoamide dehydrogenase) → cell gain with vemurafenib = 0.51; lactate per cell with vemurafenib = 0.98; Outcome = inactive
TBC1D7 (TBC1 domain family member 7) → cell gain with vemurafenib = 0.43; lactate per cell with vemurafenib = 0.89; Outcome = inactive
NKAPL (NFKB activating protein like) → cell gain with vemurafenib = 0.51; lactate per cell with vemurafenib = 0.71; Outcome = inactive
ADAM19 (ADAM metallopeptidase domain 19) → cell gain with vemurafenib = 0.86; lactate per cell with vemurafenib = 0.5; Outcome = inactive
GRM6 (glutamate metabotropic receptor 6) → cell gain with vemurafenib = 0.35; lactate per cell with vemurafenib = 1.9; Outcome = inactive
SLC9A3 → cell gain with vemurafenib = 0.46; lactate per cell with vemurafenib = 0.96; Outcome = inactive
POU3F1 (POU class 3 homeobox 1) → cell gain with vemurafenib = 0.79; lactate per cell with vemurafenib = 0.85; Outcome = inactive
PHC3 (polyhomeotic homolog 3) → cell gain with vemurafenib = 0.29; lactate per cell with vemurafenib = 1.38; Outcome = inactive
DENND2D (DENN domain containing 2D) → cell gain with vemurafenib = 0.35; lactate per cell with vemurafenib = 1.56; Outcome = inactive
TMEFF2 → cell gain with vemurafenib = 0.8; lactate per cell with vemurafenib = 0.61; Outcome = inactive
NIBAN1 (niban apoptosis regulator 1) → cell gain with vemurafenib = 0.22; lactate per cell with vemurafenib = 1.44; Outcome = inactive
OR13C5 (olfactory receptor family 13 subfamily C member 5) → cell gain with vemurafenib = 0.57; lactate per cell with vemurafenib = 0.33; Outcome = inactive
NDUFC2 (NADH:ubiquinone oxidoreductase subunit C2) → cell gain with vemurafenib = 0.6; lactate per cell with vemurafenib = 1.4; Outcome = inactive
ARHGEF4 (Rho guanine nucleotide exchange factor 4) → cell gain with vemurafenib = 0.5; lactate per cell with vemurafenib = 1.02; Outcome = inactive
SHPRH (SNF2 histone linker PHD RING helicase) → cell gain with vemurafenib = 0.7; lactate per cell with vemurafenib = 1.17; Outcome = inactive
MSX1 (msh homeobox 1) → cell gain with vemurafenib = 0.84; lactate per cell with vemurafenib = 0.58; Outcome = inactive
CYP39A1 (cytochrome P450 family 39 subfamily A member 1) → cell gain with vemurafenib = 0.19; lactate per cell with vemurafenib = 2.27; Outcome = inactive
PGAM1 (phosphoglycerate mutase 1) → cell gain with vemurafenib = 0.75; lactate per cell with vemurafenib = 0.58; Outcome = inactive
MRPL43 (mitochondrial ribosomal protein L43) → cell gain with vemurafenib = 0.46; lactate per cell with vemurafenib = 0.45; Outcome = inactive
TGDS (TDP-glucose 4,6-dehydratase) → cell gain with vemurafenib = 0.62; lactate per cell with vemurafenib = 1.23; Outcome = inactive
SYT1 (synaptotagmin 1) → cell gain with vemurafenib = 0.15; lactate per cell with vemurafenib = 0.27; Outcome = inactive
CPNE4 (copine 4) → cell gain with vemurafenib = 0.46; lactate per cell with vemurafenib = 0.54; Outcome = active
PUS10 (pseudouridine synthase 10) → cell gain with vemurafenib = 0.63; lactate per cell with vemurafenib = 0.48; Outcome = active
TMUB2 (transmembrane and ubiquitin like domain containing 2) → cell gain with vemurafenib = 0.62; lactate per cell with vemurafenib = 0.82; Outcome = inactive
SPPL2C (signal peptide peptidase like 2C) → cell gain with vemurafenib = 0.52; lactate per cell with vemurafenib = 1.34; Outcome = inactive
CD177 (CD177 molecule) → cell gain with vemurafenib = 0.66; lactate per cell with vemurafenib = 0.38; Outcome = inactive
CT45A1 (cancer/testis antigen family 45 member A1) → cell gain with vemurafenib = 0.46; lactate per cell with vemurafenib = 1.06; Outcome = inactive
TPRX1 (tetrapeptide repeat homeobox 1) → cell gain with vemurafenib = 0.71; lactate per cell with vemurafenib = 0.88; Outcome = inactive
LSAMP (limbic system associated membrane protein) → cell gain with vemurafenib = 0.7; lactate per cell with vemurafenib = 0.42; Outcome = inactive
ZNF91 (zinc finger protein 91) → cell gain with vemurafenib = 0.63; lactate per cell with vemurafenib = 0.47; Outcome = active
PGAP1 (post-GPI attachment to proteins inositol deacylase 1) → cell gain with vemurafenib = 0.42; lactate per cell with vemurafenib = 1.58; Outcome = inactive

Not a retest: entries from further up.
SRARP (steroid receptor associated and regulated protein) → cell gain with vemurafenib = 0.63; lactate per cell with vemurafenib = 1.1; Outcome = inactive
DHPS (deoxyhypusine synthase) → cell gain with vemurafenib = 1; lactate per cell with vemurafenib = 0.38; Outcome = active
FOXG1 (forkhead box G1) → cell gain with vemurafenib = 0.76; lactate per cell with vemurafenib = 0.76; Outcome = inactive
BRMS1L (BRMS1 like transcriptional repressor) → cell gain with vemurafenib = 0.88; lactate per cell with vemurafenib = 0.55; Outcome = inactive
DEFB107B (defensin beta 107B) → cell gain with vemurafenib = 0.89; lactate per cell with vemurafenib = 0.66; Outcome = inactive
